From article doi:10.1101/2022.09.16.508286
Results are given in words; binding and its absence hold for the method and conditions named. For part of these data: In cells and extracts the contact can be indirect. Some entries that bind do so weakly or less than the wild type.

Key:
Conditions in all cases: remark: other sources report otherwise
[1] = target: T1, MFN2 (human (endogenous in fibroblasts)), O95140; assay: native gel or EMSA
T1 chain: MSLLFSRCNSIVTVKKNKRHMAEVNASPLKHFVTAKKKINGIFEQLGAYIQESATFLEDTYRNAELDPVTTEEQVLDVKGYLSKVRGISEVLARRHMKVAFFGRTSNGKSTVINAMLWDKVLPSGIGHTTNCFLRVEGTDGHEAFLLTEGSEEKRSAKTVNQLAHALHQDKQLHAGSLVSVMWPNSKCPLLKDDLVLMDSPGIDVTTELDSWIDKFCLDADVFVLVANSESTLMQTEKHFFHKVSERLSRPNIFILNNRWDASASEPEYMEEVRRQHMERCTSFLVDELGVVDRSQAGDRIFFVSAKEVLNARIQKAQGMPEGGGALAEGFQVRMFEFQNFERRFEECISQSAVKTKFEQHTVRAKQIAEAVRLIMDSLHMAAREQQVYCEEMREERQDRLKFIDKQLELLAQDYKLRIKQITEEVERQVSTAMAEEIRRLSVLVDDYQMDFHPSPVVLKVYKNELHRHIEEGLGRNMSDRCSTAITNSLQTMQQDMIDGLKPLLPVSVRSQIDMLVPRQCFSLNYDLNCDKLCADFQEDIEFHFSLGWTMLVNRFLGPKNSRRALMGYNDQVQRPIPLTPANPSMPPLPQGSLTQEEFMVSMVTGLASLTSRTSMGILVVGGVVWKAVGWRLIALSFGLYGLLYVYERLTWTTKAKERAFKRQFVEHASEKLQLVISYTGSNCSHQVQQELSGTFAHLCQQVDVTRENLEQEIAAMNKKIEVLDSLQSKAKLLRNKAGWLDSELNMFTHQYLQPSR

[2] = target: T1, MFN2 (human (endogenous in …)); assay: native gel or EMSA
[3] = target: T2, SLC25A46 (human (endogenous in fibroblasts)), Q96AG3; assay: co-IP
T2 chain: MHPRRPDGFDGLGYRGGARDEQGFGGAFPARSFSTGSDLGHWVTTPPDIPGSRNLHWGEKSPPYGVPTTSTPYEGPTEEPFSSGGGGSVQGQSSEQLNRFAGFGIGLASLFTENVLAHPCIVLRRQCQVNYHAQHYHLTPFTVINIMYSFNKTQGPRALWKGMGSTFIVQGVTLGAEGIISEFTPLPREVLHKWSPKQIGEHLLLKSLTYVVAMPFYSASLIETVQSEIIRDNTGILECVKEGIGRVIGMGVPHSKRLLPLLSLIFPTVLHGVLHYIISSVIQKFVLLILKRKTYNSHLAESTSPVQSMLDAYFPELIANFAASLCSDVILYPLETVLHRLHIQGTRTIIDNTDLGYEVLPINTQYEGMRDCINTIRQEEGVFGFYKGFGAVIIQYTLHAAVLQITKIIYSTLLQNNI

Measured: binding

B1: MFN2, O95140 1-757 (protein)
chain: MSLLFSRCNSIVTVKKNKRHMAEVNASPLKHFVTAKKKINGIFEQLGAYIQESATFLEDTYRNAELDPVTTEEQVLDVKGYLSKVRGISEVLARRHMKVAFFGRTSNGKSTVINAMLWDKVLPSGIGHTTNCFLRVEGTDGHEAFLLTEGSEEKRSAKTVNQLAHALHQDKQLHAGSLVSVMWPNSKCPLLKDDLVLMDSPGIDVTTELDSWIDKFCLDADVFVLVANSESTLMQTEKHFFHKVSERLSRPNIFILNNRWDASASEPEYMEEVRRQHMERCTSFLVDELGVVDRSQAGDRIFFVSAKEVLNARIQKAQGMPEGGGALAEGFQVRMFEFQNFERRFEECISQSAVKTKFEQHTVRAKQIAEAVRLIMDSLHMAAREQQVYCEEMREERQDRLKFIDKQLELLAQDYKLRIKQITEEVERQVSTAMAEEIRRLSVLVDDYQMDFHPSPVVLKVYKNELHRHIEEGLGRNMSDRCSTAITNSLQTMQQDMIDGLKPLLPVSVRSQIDMLVPRQCFSLNYDLNCDKLCADFQEDIEFHFSLGWTMLVNRFLGPKNSRRALMGYNDQVQRPIPLTPANPSMPPLPQGSLTQEEFMVSMVTGLASLTSRTSMGILVVGGVVWKAVGWRLIALSFGLYGLLYVYERLTWTTKAKERAFKRQFVEHASEKLQLVISYTGSNCSHQVQQELSGTFAHLCQQVDVTRENLEQEIAAMNKKIEVLDSLQSKAKLLRNKAGWLDSELNMFTHQYLQPSR
binds: all assays above
